# Source: patent US11260050B2, “Combination of cotinine plus antioxidant for treatment-resistant depression and correction of astrocytes functional deficit induced by depression and other neuropathological” (UNIVERSIDAD SAN SEBASTIAN, priority 2017, dated 2022)
# Tested on: conditioned mice
# Experiment: Fear retention and extinction tests after fear conditioning (Example 4)
# Assay type: in vivo, Mice C57BL/6
# Settings: sertraline or krill oil alone
# Experimental: Three-month-old mice (n=5-6/condition) were weighed and assigned to treatment groups. Mice were treated with vehicle or drugs, starting two h after fear conditioning and daily after behavioral testing until euthanasia. Mice received daily treatments with 1. PBS (phosphate buffer saline, pH 7.4) via intranasal; 2. Cotinine (10 mg/ml) dissolved in PBS via intranasal (IN Cot, 24 μl); 3. Krill oil dissolved in PBS, via intranasal (48 mg/ml, 24 μl); 4. Cotinine (10 mg/ml) plus krill oil dissolved in PBS, via intranasal (48 mg/ml, 24 μl); 5.
# For intranasal delivery, mice were hand-restrained, placed in a supine position, and given two 12 μl drops of cotinine solutions, or PBS, into both nares consecutively. Mice were given an extra 12 μl treatment drop if the subject forcibly ejected or sneezed out the solution. Mice were held supine for 5-10 seconds after delivery to ensure that all fluid was inhaled.
# Contextual fear conditioning was performed as described. […] Freezing behavior was defined as the absence of all movement except the one needed for breathing was assessed using the FreezeView Software (MED Associates Inc.).
# Fear retention and extinction experiments were performed as described, using the same cohorts of mice and reproduced in two separate experiments. […] Freezing behavior was measured using the ANY-Maze® software (Stoelting CO, USA). […]
smiles,measurement,value
"CN[C@H]1CC[C@@H](c2ccc(Cl)c(Cl)c2)c2ccccc21.Cl [Sertraline, (1S,4S)-4-(3,4-dichlorophenyl)-1,2,3,4-tetrahydro-N-methyl-1-naphthalenamine hydrochloride, reference compound]",day on which decrease in freezing became comparable to control PBS-treated mice,5 days
